PubChem BioAssay AID1347076 (National Center for Advancing Translational Sciences (NCATS), 2019)
The campaign covered roughly 400,000 compounds. About 13,000 (3.2%) were called active. Inconclusive results, whose numbers are uncertain, are shown with a selection of clear calls. Calls come from the whole dose curve; as a rule, active = well fitted cell-killing curve with a large enough effect; inconclusive = small, poorly fitted or top-dose-only effect, or effect the other way; inactive = flat fitted curve, though single readings scatter. Potencies beside an inconclusive call are fits to weak or partial responses and may not hold up.

Experiment: qHTS assay for MDR1-selective chemotherapeutics: Primary screen using the drug-selected MDR subline cells KB-V1; note: nearly all actives have a fitted effect of over 60% in size
Conditions: KB-V1 MDR cells viability, CellTiter-Glo, 72 h; activity change, negative = cytotoxicity: at 46.1 µM (top of the series)
Method in brief: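 Cytotoxicity toward P-gp-expressing KB-V1 cells was determined as loss of CellTiter-Glo luminescence after 72 h at 37 degrees C. Compounds were tested in quantitative HTS format across a concentration range, with curves fitted to normalized data.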
% is set by controls: 0 for no effect and ±100 for the full control effect; potency is the fitted concentration of half-maximal effect.

SMILES | Potency | activity change, negative = cytotoxicity
CCOC(=O)C1(CCc2ccccc2)CCN(C(=O)Cc2nonc2C)CC1 | inconclusive: 16.4 µM [cytotoxic, partial curve] | 
COc1ccc(N(CC(=O)NCc2ccc(F)cc2)C(=O)c2snc(C(N)=O)c2N)cc1OC | inactive | 
Cc1cccc(OCC(=O)N(Cc2cccs2)c2ccc(Cl)cc2)c1C | inconclusive: 16.4 µM [cytotoxic, partial curve, poor fit] | 
CC(C)CCNC(=O)c1cc(-c2ccco2)nc2ccccc12 | active: 9.2 µM | 
CCOC(=O)CNC(=O)c1ccc(C)cc1 | inactive | 
O=C(N/N=C/c1c[nH]c2ccccc12)C1CC1c1ccccc1 (centres undefined) | inconclusive: 14.6 µM [cytotoxic, single point] | 
CCc1ccc(CN(C)C(=O)C2CCC(=O)N(Cc3ccccn3)C2)cc1 (centres undefined) | inconclusive: 2.59 µM [cytotoxic, full curve, poor fit] | 
Brc1ccc2ncnc(NCc3ccco3)c2c1 | inactive | 
CCCCc1c(-c2ccccc2OC)ncn1CCc1cccc(OC)c1 | active: 11.6 µM | 
Cc1cc(=S)cc(C)n1CCCn1ccnc1 | inconclusive: 8.2 µM [rising, partial curve] | 
CN1C(=O)c2ccccc2Sc2ccc(NC(=O)c3ccccc3F)cc21 | inconclusive: 23.1 µM [cytotoxic, single point] | 
Brc1ccc2oc3c(N4CCOCC4)ncnc3c2c1 | active: 16.4 µM | 
C=CCOc1ccc(CN(C)c2ccc(S(=O)(=O)N3CCN(C)CC3)cc2[N+](=O)[O-])cc1 | active: 8.2 µM | 
O=c1[nH]c(Cn2nnc(-c3ccccc3)n2)nc2scc(-c3ccccc3)c12 | inconclusive: 18.4 µM [cytotoxic, partial curve] | 
O=C1c2oc3ccccc3c(=O)c2C(c2ccccc2)N1Cc1ccc2c(c1)OCO2 (centres undefined) | inconclusive: 23.1 µM [cytotoxic, single point] | 
COC(=O)CSc1nc(NCC(C)C)nc(N2CCOCC2)n1 | inconclusive: 25.9 µM [cytotoxic, partial curve, poor fit] | 
C=CCN1C(=O)/C(=C/c2ccc(OCC(=O)O)cc2)S/C1=N/c1nccs1 | inactive | 
CCOC(=O)c1c(NC(=O)c2cccs2)sc(C(=O)N2CCOCC2)c1C | inactive | 
CC(C)CC1c2[nH]c3ccccc3c2CCN1CCCn1cccn1 (centres undefined) | inconclusive: 14.6 µM [cytotoxic, partial curve] | 
Cc1ccc(S(=O)(=O)N2CCOCC2)cc1C(=O)OCC(=O)Nc1ccc2[nH]c(=O)[nH]c2c1 | inconclusive: 18.4 µM [rising, single point] | 
Cc1ccc2c(c1)C1CN(C)CCC1N2S(=O)(=O)c1cccc(F)c1 (centres undefined) |  | inconclusive: -76.5%
CS(=O)(=O)N(CC(=O)NCc1ccncc1)c1cc(Cl)cc(Cl)c1 | inconclusive: 29.1 µM [cytotoxic, partial curve, poor fit] | 
O=C(CCn1c(=O)[nH]c2ccccc2c1=O)N1CCN(c2ccc(Cl)cc2)CC1 | inactive | 

SMILES | Potency | activity change, negative = cytotoxicity
O=C(Nc1ccc(-c2cn3ccccc3n2)cc1)c1cccs1 | inconclusive: 16.4 µM [cytotoxic, partial curve] | 
COc1cccc2c(=O)c(C(=O)NCc3cccs3)c[nH]c12 | inconclusive: 23.1 µM [cytotoxic, partial curve, poor fit] | 
O=C(O)c1nccnc1C(=O)Nc1ccc(Oc2c(Cl)cccc2Cl)nc1 | inconclusive: 8.2 µM [rising, partial curve, poor fit] | 
COc1cc(OC)c(OC)cc1CN1CCN(Cc2cccn2C)CC1 | inconclusive: 18.4 µM [cytotoxic, partial curve, poor fit] | 
Cc1ccc(C)c(N(C(=O)Cn2nnc(-c3cccs3)n2)C(C(=O)NC2CC2)c2ccc(C)o2)c1 (centres undefined) | inconclusive: 0.731 µM [cytotoxic, full curve] | 
Cc1ccc(/C(N)=N/OC(=O)Oc2ccccc2)cc1 | inconclusive: 23.1 µM [rising, single point] | 
O=S(=O)(Nc1cccc(-n2cnnn2)c1)c1ccc(F)cc1 | inactive | 
CCN1C(=O)c2ccccc2Sc2ccc(C(=O)NCCCN(CC(C)C)CC(C)C)cc21 | inconclusive: 20.6 µM [cytotoxic, single point] | 
COc1ccc(NC(=S)NCc2ccc(F)cc2)cc1 | inactive | 
CC(=O)c1cccc(NC(=O)C2CC(=O)N(c3cccc(C)c3C)C2)c1 (centres undefined) | inconclusive: 29.1 µM [cytotoxic, single point] | 
Cc1nc2cccnc2n1-c1cccc(C(=O)N2CCN(c3ccc(Cl)cc3)CC2)c1 | inactive | 
CCCc1nc2ccccc2c(=O)n1NC(=O)c1c(O)c2ccccc2n(C)c1=O | active: 5.8 µM | 
COCCn1c(C)cc(C(=O)COC(=O)c2[nH]c(C)c(C(C)=O)c2C)c1C | active: 4.11 µM | 
Cc1nc2sc(C(N)=O)c(N)c2c2c1CCCC2 | active: 20.6 µM | 
CCc1ccc(NC(=S)N(CCN2CCOCC2)Cc2ccccc2F)cc1 | inconclusive: 18.4 µM [cytotoxic, partial curve, poor fit] | 
O=c1[nH]c(C2CCCN(S(=O)(=O)c3ccccc3)C2)nc2c1nnn2Cc1cccc(Cl)c1 (centres undefined) | inactive | 
COC(=O)[C@@]12C[C@@H](CC(=O)NCc3ccc(OC)c(OC)c3)C(=O)N(Cc3cccc4ccccc34)C1=CCC(C)(C)C2 | active: 20.6 µM | 
COc1ccc(S(=O)(=O)N(CC(=O)N2CCN(C)CC2)c2ccc(C)cc2)cc1OC | inconclusive: 16.4 µM [cytotoxic, single point] | 
CC1(C(=O)NCCC(F)(F)F)Cc2c(-c3cccc(C(F)(F)F)c3)ccnc2O1 (centres undefined) | inconclusive: 7.31 µM [cytotoxic, partial curve] | 
COc1cc(CN2CCN(c3cccc(C)c3C)CC2)cc(Br)c1O | inconclusive: 29.1 µM [cytotoxic, single point] | 
CCOc1cc(NC(=S)NCc2ccco2)c(OCC)cc1NC(=O)c1ccco1 | inconclusive: 2.06 µM [cytotoxic, partial curve, poor fit] | 
COc1ccc(NC2CCCN(C(=O)COc3ccc(C(C)=O)cc3)C2)cc1 (centres undefined) | inconclusive: 25.9 µM [cytotoxic, partial curve, poor fit] | 
NCc1cccc(CNc2ccc([N+](=O)[O-])cc2C(N)=O)c1 | inconclusive: 20.6 µM [rising, single point] | 

An excerpt of these results, in CSV form.
SMILES,Potency,"activity change, negative = cytotoxicity"
COc1cccc2c(=O)c(C(=O)NCc3cccs3)c[nH]c12,"inconclusive: 23.1 µM [cytotoxic, partial curve, poor fit]",
O=C(O)c1nccnc1C(=O)Nc1ccc(Oc2c(Cl)cccc2Cl)nc1,"inconclusive: 8.2 µM [rising, partial curve, poor fit]",
COc1cc(OC)c(OC)cc1CN1CCN(Cc2cccn2C)CC1,"inconclusive: 18.4 µM [cytotoxic, partial curve, poor fit]",
Cc1ccc(C)c(N(C(=O)Cn2nnc(-c3cccs3)n2)C(C(=O)NC2CC2)c2ccc(C)o2)c1 (centres undefined),"inconclusive: 0.731 µM [cytotoxic, full curve]",
Cc1ccc(/C(N)=N/OC(=O)Oc2ccccc2)cc1,"inconclusive: 23.1 µM [rising, single point]",

(list continues)

SMILES | Potency | activity change, negative = cytotoxicity
O=C(CCC(=O)Nc1ccc(F)cc1)N/N=C/c1cccs1 | inconclusive: 8.2 µM [rising, partial curve, poor fit] | 
COC(=O)[C@@]1(Cc2ccc(F)cc2)[C@H]2c3cc(C(=O)N4CCCC4)n(Cc4ccccc4)c3C[C@H]2CN1C(=O)c1ccccc1 | inactive | 
Cc1cccc(CCNC(=O)c2sc3nc4n(c(=O)c3c2C)CCCC4)c1 | inactive | 
NNC(=O)c1cnn(Cc2ccccc2)c1N | inconclusive: 25.9 µM [rising, partial curve] | 
COc1cc(-c2ccc(N3C(c4ccsc4)=Cc4ccc(F)cc4C3c3c[nH]c4ccc(C#N)cc34)cc2)cc(OC)c1OC (centres undefined) | inactive | 
CC(OC(=O)c1snc(C(=O)NC2CCCCC2)c1N)C(=O)NC(C)(C)C (centres undefined) | inconclusive: 7.94 µM [cytotoxic, partial curve] | 
Cc1ccc2oc(C(=O)NCCC3CCCCO3)c(C)c2c1 (centres undefined) | inconclusive: 29.1 µM [cytotoxic, single point] | 
COc1ccc(CN2CCN(C(=O)c3ccc4nc(N5CCOCC5)sc4c3)CC2)c(OC)c1OC | inconclusive: 6.51 µM [cytotoxic, partial curve] | 
O=C(Nc1nccs1)[C@@H]1CC=C[C@@H]2CCN(Cc3ccccc3)C(=O)[C@@H]21 | inconclusive: 8.2 µM [cytotoxic, partial curve] | 
CCOC(=O)Nc1ccc(NCc2ccc(F)cc2)nc1N | inactive | 
CC(C)[C@H](N)C(=O)N[C@H]1CCC2C3CC=C4C[C@@H](O)CC[C@]4(C)C3CC[C@@]21C (some centres undefined) | inactive | 
C[C@@]12C(=O)N(Cc3ccccc3)CC(=O)N1[C@H](/C=C/c1ccccc1)[C@@H]1C(=O)N(c3ccccc3)C(=O)[C@@H]12 | inconclusive: 5.17 µM [rising, full curve, poor fit] | 
Cc1ccc2ncnc(Nc3ccc(C)c(C)c3)c2c1 | inconclusive: 23.1 µM [cytotoxic, single point] | 
CCOc1ccc(S(=O)(=O)N2CN(c3cccc(C(C)=O)c3)c3nc4ccccc4nc32)cc1 | inactive | 
Cc1cccc(NS(=O)(=O)c2ccc(C(=O)NCC(c3ccco3)N(C)C)cc2)c1C (centres undefined) | inconclusive: 18.4 µM [cytotoxic, single point] | 
O=C(Nc1ccc(-c2nnc(-c3ccco3)o2)cc1)C(c1ccccc1)c1ccccc1 | inactive | 
Cc1ccc(S(=O)(=O)Nc2cccc(Cl)c2)cc1NC(=O)C1CC1 | active: 20.6 µM | 
COc1ccc(NC(=O)CSc2nccn2Cc2ccc(F)cc2)c(OC)c1 | inactive | 
O=C(NCCCc1ccccc1)c1c(O)nc2sccn2c1=O | inconclusive: 2.91 µM [cytotoxic, partial curve, poor fit] | 
Cc1ccc(-c2nn(-c3ccccc3)cc2C(=O)NCC2CCCO2)cc1 (centres undefined) | inconclusive: 13 µM [cytotoxic, partial curve, poor fit] | 
Cc1cc2nn(-c3ccc(Cl)cc3)nc2cc1N | inactive | 
Cc1ccc(C)c(CN2C(=O)C(=O)c3ccccc32)c1 | inconclusive: 29.1 µM [cytotoxic, single point] | 
COc1ccc(N2C(=O)C3[C@@H](C2=O)C2(Cl)C(Cl)=C(Cl)C3(Cl)C2(OC)OC)cc1 (some centres undefined) | inconclusive: 13 µM [cytotoxic, partial curve] | 
